PubChem BioAssay AID504784 – Drosophila RNAi Screening Center, 2011

Aim: 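Genome-wide knock-down for genes giving too much or too little stored lipid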 (primary screen)
System: Drosophila Kc167 embryonic cells
Reagents: long dsRNA against Drosophila genes, about 250 ng dsRNA per well
Time to read-out: 4 days
Challenge: cells fed 400 µM oleic acid bound to BSA
Detection: 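Microscope images give a droplet-to-nucleus area ratio, taken as log and converted to a screen-wide B-score; higher values mean greater lipid storage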
Scale: droplet/nuclear area B-score: higher = more stored lipid (overstorage)
The deposit covers about 17,000 reagents; below is an unselected part of those that have a named target and a result. 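Each column is one replicate's B-score; the combined score over replicates was not deposited, so single values may mislead.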 Names joined by + are all predicted targets of the reagent. Not all columns of the deposit are shown.

| Gene | dsRNA | droplet/nuclear area B-score, replicate 1 | droplet/nuclear area B-score, replicate 2 |
| --- | --- | --- | --- |
| Pfdn5 (GeneID 42647) | DRSC16183 | -0.0318 | 0.38 |
| mEFTs (GeneID 35060) | DRSC02953 | -1.4 | -0.125 |
| Cpn (GeneID 41474) | DRSC16613 | 8.2 | 0.385 |
| Gr2a (GeneID 31093) | DRSC18603 | 0.581 | 1.3 |
| Cyp4e3 (GeneID 34291) | DRSC03306 | 2.31 | -0.322 |
| CG6553 (GeneID 36537) | DRSC07002 | 2.16 | 1.31 |
| senju (GeneID 33734) | DRSC02366 | 1.29 | -0.355 |
| CG13562 (GeneID 37797) | DRSC04200 | 2.01 | 0.195 |
| Tsp47F (GeneID 36230) | DRSC07325 | -0.621 | -0.244 |
| sev (GeneID 32039) | DRSC20372 | 1.24 | 1.22 |
| Or98a (GeneID 43341) | DRSC16774 | 0.898 | 0.0688 |
| Ts (GeneID 33499) | DRSC00795 | 0.942 | -0.476 |
| Ts (GeneID 33499) | DRSC22168 | -0.178 | -1.43 |
| Atet (GeneID 33636) | DRSC00263 | -0.0918 | -1.02 |
| CG42525 (GeneID 8674097) | DRSC08026 | -0.0448 | -0.0246 |
| CG7387 (GeneID 38915) | DRSC10833 | 0.88 | -0.721 |
| Gdh (GeneID 42832) | DRSC16679 | -0.155 | 1.94 |
| scat (GeneID 47942) | DRSC02722 | -0.0808 | -0.365 |
| Arfip (GeneID 41353) | DRSC15179 | -1.75 | 2.68 |
| nonA-l (GeneID 42026) | DRSC17017 | 0.11 | 1.58 |
| Coq8 (GeneID 32239) | DRSC19900 | -0.685 | 0.232 |
| Mesh1 (GeneID 43456) | DRSC14433 | -0.0592 | 2 |
| Oatp26F (GeneID 33927) | DRSC02149 | 0.036 | -0.96 |
| Oatp26F (GeneID 33927) | DRSC02272 | -0.101 | -0.62 |
| Oatp26F (GeneID 33927) | DRSC02695 | -0.492 | 2.06 |
| Dlip2 (GeneID 40579) | DRSC12346 | -0.0558 | -1.35 |
| Syn1 + CG7370 | DRSC22768 | 0.388 | -0.824 |
| CG31751 (GeneID 35118) | DRSC02464 | -1.8 | -1.05 |
| CG31751 (GeneID 35118) | DRSC02465 | -2.41 | 1.87 |
| Pitslre (GeneID 40292) | DRSC11874 | -1.01 | -0.0245 |
| Pitslre (GeneID 40292) | DRSC23346 | -1.47 | 0.954 |
| GC (GeneID 38194) | DRSC08396 | 0.426 | -0.933 |
| ppk21 (GeneID 43485) | DRSC14466 | -1.75 | -0.566 |
| CG33301 (GeneID 2768917) | DRSC02778 | 0.561 | -0.043 |
| Cat (GeneID 40048) | DRSC11110 | -0.994 | -0.29 |
| CtsB (GeneID 32341) | DRSC19361 | 0.612 | 0.071 |
| CG10175 (GeneID 42773) | DRSC13628 | -0.137 | -1.33 |
| CG10175 (GeneID 42773) | DRSC14200 | -0.0474 | -1.48 |
| CG10175 (GeneID 42773) | DRSC21981 | -0.485 | 0.875 |
| CG1233 (GeneID 38063) | DRSC08269 | -0.325 | 0.616 |
| gammaSnap2 (GeneID 41239) | DRSC15992 | 0.62 | -0.106 |
| SKIP (GeneID 42601) | DRSC14713 | -1.2 | -0.703 |
| SKIP (GeneID 42601) | DRSC14714 | 2.39 | 0.654 |
| SKIP (GeneID 42601) | DRSC15864 | -0.0296 | -1.51 |
| SKIP (GeneID 42601) | DRSC16195 | -0.00474 | 3.32 |
| SKIP (GeneID 42601) | DRSC16196 | -0.264 | -0.105 |
| CG10038 (GeneID 41495) | DRSC14178 | 0.799 | 4.71 |
| RecQ5 (GeneID 39594) | DRSC11266 | 0.241 | -0.919 |
| Torsin (GeneID 31399) | DRSC18570 | 0.311 | -1.2 |
| parvin (GeneID 32990) | DRSC19468 | -0.81 | -0.0147 |
| CR40441 (GeneID 10178882) | DRSC22916 | -3.44 | 2.42 |
| CG12744 (GeneID 36024) | DRSC06164 | 0.563 | -1.64 |
| CG6028 (GeneID 42589) | DRSC15951 | -1.38 | -0.0264 |
| Tim9a (GeneID 32294) | DRSC19753 | 0.316 | 0.137 |
| drosha (GeneID 35747) | DRSC07607 | -2.62 | -2.71 |
| grn (GeneID 40962) | DRSC16961 | 0.501 | -0.931 |
| Or22c (GeneID 33381) | DRSC00766 | 0.49 | 0.564 |
| CG16965 (GeneID 34607) | DRSC02547 | -0.156 | -1.45 |
| wls (GeneID 39259) | DRSC10605 | -0.344 | 1.71 |
| Ssu72 (GeneID 32973) | DRSC19572 | -0.805 | -0.391 |
| CecA2 (GeneID 43597) | DRSC16604 | -0.78 | -0.702 |
| CG18294 + 825-Oak + CG32214 + 2 more | DRSC22210 | -0.672 | 1.46 |
| Gclm (GeneID 248194) | DRSC15677 | -1.18 | -0.044 |
| CG13613 (GeneID 42910) | DRSC14616 | -1.65 | 0.193 |
| Mvk + CG33672 + spt4 | DRSC05356 | 0.0283 | 0.0851 |
| Mvk + CG33672 + spt4 | DRSC06628 | -1.25 | -0.704 |
| Phm (GeneID 37823) | DRSC04639 | -0.0849 | 0.062 |
| pug (GeneID 41279) | DRSC17036 | 1.69 | 0.607 |
| CG9068 (GeneID 36817) | DRSC07329 | -1.23 | 0.644 |
| fz3 (GeneID 31023) | DRSC18779 | 1.19 | 1.04 |
| spab (GeneID 35901) | DRSC07112 | -0.804 | 0.0195 |
| Npc2f (GeneID 42864) | DRSC15980 | -0.0895 | 0.138 |
| bves (GeneID 33083) | DRSC20520 | -1.16 | 0.19 |
| bves (GeneID 33083) | DRSC20555 | -0.0827 | 0.446 |
| Ntan1 (GeneID 37147) | DRSC07546 | 0.321 | -1.06 |
| CG9316 (GeneID 35333) | DRSC03195 | -0.0131 | 2.08 |
| PCB (GeneID 36020) | DRSC05939 | -0.387 | 0.872 |
| CG15127 (GeneID 50203) | DRSC05802 | 0.765 | 0.126 |
| CG15127 (GeneID 50203) | DRSC06549 | -1.29 | 0.228 |
| Ir60d (GeneID 7354402) | DRSC04218 | 0.11 | -0.12 |
| CG5107 (GeneID 43084) | DRSC15716 | 0.705 | -0.688 |
| CG30324 (GeneID 246540) | DRSC22655 | -0.712 | 0.647 |
| CG5386 (GeneID 42613) | DRSC15788 | 1.26 | 3.25 |
| CG32551 (GeneID 318085) | DRSC19259 | -0.245 | -1.56 |
| CR33315 (GeneID 3771801) | DRSC22947 | 0.669 | -0.000844 |
| CG16723 (GeneID 42781) | DRSC15138 | 0.0117 | -0.457 |
| Ugt304A1 (GeneID 53501) | DRSC15127 | -0.00293 | -0.648 |
| CG15084 (GeneID 37178) | DRSC06515 | -2.83 | -5.73 |
| CG15084 (GeneID 37178) | DRSC21403 | 0.345 | 2.17 |
| Smurf (GeneID 36999) | DRSC07641 | -0.983 | 0.34 |
| Myo10A (GeneID 32028) | DRSC19834 | 1.4 | 0.91 |
| Myo10A (GeneID 32028) | DRSC19837 | 0.566 | 1.4 |
| CG6294 + CG6299 + CG15642 | DRSC19981 | 0.226 | 0.866 |
| BomS6 (GeneID 50206) | DRSC21676 | -0.604 | -0.825 |
| Def (GeneID 36047) | DRSC07398 | 1.69 | -1.46 |
| CG17375 (GeneID 33956) | DRSC02614 | -2.01 | -0.793 |
| CG12861 (GeneID 36628) | DRSC06201 | -1.69 | 1.09 |
| CG12861 (GeneID 36628) | DRSC21960 | 0.304 | -2.29 |
| Cph (GeneID 31660) | DRSC18434 | 0.61 | 0.0372 |
| CG4612 (GeneID 37914) | DRSC04478 | 0.907 | -1.58 |
| sens (GeneID 45328) | DRSC09263 | -0.145 | -1.31 |
| sens (GeneID 45328) | DRSC23086 | 2.21 | 0.827 |
| Toll-4 (GeneID 34235) | DRSC03458 | 0.35 | -0.111 |
| Obp56e (GeneID 37267) | DRSC07188 | 1.04 | -0.859 |
| Cda9 (GeneID 36934) | DRSC06593 | -0.65 | 3.4 |

Records above whose gene name starts with T or t (6):
| Gene | dsRNA | droplet/nuclear area B-score, replicate 1 | droplet/nuclear area B-score, replicate 2 |
| --- | --- | --- | --- |
| Tsp47F (GeneID 36230) | DRSC07325 | -0.621 | -0.244 |
| Ts (GeneID 33499) | DRSC00795 | 0.942 | -0.476 |
| Ts (GeneID 33499) | DRSC22168 | -0.178 | -1.43 |
| Torsin (GeneID 31399) | DRSC18570 | 0.311 | -1.2 |
| Tim9a (GeneID 32294) | DRSC19753 | 0.316 | 0.137 |
| Toll-4 (GeneID 34235) | DRSC03458 | 0.35 | -0.111 |
